Laboratory results: PubChem BioAssay AID445 (National Center for Advancing Translational Sciences (NCATS), 2006)
The list shows a part of the results. The main result of the screen is listed elsewhere. These columns were measured beside it and carry no call. Most of these compounds were active or inconclusive in the main read-out, so they are no random draw. Potencies come from curve fits of mixed quality, noted in brackets.

Assay: IkB Signaling
Conditions: ABC-DLBCL IkBa-CBG/CBR dual luciferase ratio (green luciferase fused to IkBa over red control in OCI-Ly3 lymphoma cells), 4 h
Summary of the method: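 Luminescence ratio of IκBα-fused green versus native red beetle luciferase in OCI-Ly3 cells, 4 h post-doxycycline with compound; red signal alone, scaled from basal (0%) to zero light (-100%), flagged nonspecific or cytotoxic effects.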

[1] = measured here: control luc red channel unless noted

Q: With `COc1ccc(C(=O)NCc2nnc(SCC(=O)Nc3ccc(F)cc3)n2-c2ccccc2)cc1` as the compound, how does the AC50 [1] read?
A: Its AC50 is 25.1 µM [falling, single point].

Q: With `COC(=O)c1ccc(NC(=O)CSc2nc3c(c(=O)n(C)c(=O)n3C)n2Cc2ccccc2)cc1` as the compound, how does the AC50 [1] read?
A: Its AC50 is 20 µM [falling, single point].

Q: With `COC(=O)c1ccc(OC)c(CSc2nnc(COc3cccc(C)c3)o2)c1` as the compound, how does the AC50 [1] read?
A: Its AC50 is 15.8 µM [falling, partial curve].

Q: For `Cc1cc(Nc2ccc(Cl)cc2)n2cnnc2n1`, which AC50 [1] is on record?
A: Its AC50 is 39.8 µM [falling, single point].

Q: For `CC(C)N1CCC2(CC1)N=C(c1ccc3c(c1)OCO3)CC(c1cc(Cl)ccc1O)N2` (centres undefined), which AC50 (measured here: IkB-luc green channel) is on record?
A: Its AC50 is 3.98 µM [rising, partial curve].

Q: What about the AC50 (measured here: control luc red channel) of the same compound?
A: The AC50 was 10 µM [falling, partial curve].

Q: Which AC50 [1] does the source give for `Cc1ccccc1-c1noc(-c2cc(C(C)C)[nH]n2)n1` here?
A: The AC50 was 15.8 µM [falling, partial curve].

Q: For `Cc1cccc(N2CCN(C(=O)CN3C(=O)COc4ccc(S(=O)(=O)N5CCCC5)cc43)CC2)c1C`, which AC50 [1] is on record?
A: Its AC50 is 3.16 µM [falling, single point].

Q: Which AC50 [1] does the source give for `CC(NC(=O)c1ccco1)C(c1cccs1)N1CCN(c2ccccc2)CC1` (centres undefined) here?
A: The AC50 was 15.8 µM [falling, partial curve].

Q: For `N#C/C(=C\c1c(Oc2ccc(F)cc2)nc2ccccn2c1=O)c1nc2ccccc2s1`, which AC50 [1] is on record?
A: Its AC50 is 25.1 µM [falling, single point].

Q: For `COCC(=O)O[C@]1(CCN(C)CCCc2nc3ccccc3[nH]2)CCc2cc(F)ccc2[C@@H]1C(C)C`, which AC50 [1] is on record?
A: Its AC50 is 15.8 µM [falling, partial curve] [measured here: IkB-luc green channel].

Q: With `CCc1ccc(CNC(=O)C2CCN(C(=O)c3ccc(-n4ccc5ccccc54)s3)CC2)cc1` as the compound, how does the AC50 [1] read?
A: The AC50 was 10 µM [falling, partial curve].

Q: For `Cc1ccccc1CS(=O)(=O)c1ncc(Cl)c(C(=O)Nc2nnc(C(C)C)s2)n1`, which AC50 [1] is on record?
A: Its AC50 is 6.31 µM [falling, full curve].

Q: With `Cc1ccccc1-c1noc(-c2ccc(N3CCCC3)c([N+](=O)[O-])c2)n1` as the compound, how does the AC50 [1] read?
A: Its AC50 is 15.8 µM [falling, single point].

Q: With `CCOc1ccc(N(C(=O)c2ccc(OC)cc2)S(=O)(=O)c2ccc3c(c2)n(C)c(=O)n3C)cc1` as the compound, how does the AC50 [1] read?
A: The AC50 was 0.398 µM [rising, partial curve].

Q: For `O=C(c1ccc(S(=O)(=O)N2CCCC2)cc1)N1CCN(Cc2ccc3c(c2)OCO3)CC1`, which AC50 [1] is on record?
A: The AC50 was 7.94 µM [falling, partial curve].

Q: Which AC50 [1] does the source give for `COc1ccc(OC)c(C(=O)C2COC(=O)C2)c1` (centres undefined) here?
A: The AC50 was 15.8 µM [falling, partial curve].

Q: With `COc1cccc(-n2c(SCC(=O)NCCC3=CCCCC3)nc3n[nH]c(C)c3c2=N)c1` as the compound, how does the AC50 [1] read?
A: The AC50 was 10 µM [falling, partial curve].

Q: With `N#C/C(=C/c1ccc(N2CCCCCC2)o1)c1ccc(F)cc1` as the compound, how does the AC50 [1] read?
A: The AC50 was 3.16 µM [falling, full curve].

Q: For `CCS(=O)(=O)N1Cc2ccccc2CC1C(=O)N1CCN(c2cccc(C)c2C)CC1` (centres undefined), which AC50 [1] is on record?
A: Its AC50 is 20 µM [falling, partial curve].

Q: With `O=C(O)c1c2c(nc3ccc(S(=O)(=O)N4CCC(C(=O)NCc5ccc(Cl)cc5)CC4)cc13)CCCC2` as the compound, how does the AC50 [1] read?
A: Its AC50 is 15.8 µM [falling, partial curve].

Q: With `O=C(Nc1nc2ccccc2[nH]1)c1ccccc1F` as the compound, how does the AC50 [1] read?
A: The AC50 was 2 µM [falling, full curve].

Q: For `COc1cc(/C=C/c2nc3cc(Cl)ccc3c(=O)n2-c2ccc(C)cc2C)cc(OC)c1OC`, which AC50 [1] is on record?
A: The AC50 was 31.6 µM [falling, single point].

Q: Which AC50 [1] does the source give for `O=C(CCCC1=NS(=O)(=O)c2ccccc2N1)N1CCN(c2ccc(Cl)cc2)CC1` here?
A: Its AC50 is 25.1 µM [falling, single point].

Q: Which AC50 [1] does the source give for `COc1ccc(S(=O)(=O)NCC(c2ccco2)N2CCN(c3ccccc3F)CC2)cc1C` (centres undefined) here?
A: The AC50 was 39.8 µM [falling, single point].

Q: With `Cc1onc(-c2ccccc2)c1C(N)=O` as the compound, how does the AC50 [1] read?
A: Its AC50 is 7.94 µM [rising, single point] [measured here: IkB-luc green channel].

Q: With `O=C(Cc1c(O)c2ccccc2[nH]c1=O)NC1CCCCCCC1` as the compound, how does the AC50 [1] read?
A: Its AC50 is 2.51 µM [falling, full curve].

Q: With `CCOC(=O)c1c(C)oc2nc(C)nc(N3CCN(c4cccc(C)c4C)CC3)c12` as the compound, how does the AC50 [1] read?
A: Its AC50 is 31.6 µM [falling, single point].

Q: Which AC50 [1] does the source give for `Cc1c(C(=O)OC2CCCCC2)sc2nc[nH]c(=O)c12` here?
A: Its AC50 is 3.98 µM [rising, partial curve].

Q: With `Cc1cccc(OCCSc2nc3ccccc3n2CC(=O)N2CCOCC2)c1C` as the compound, how does the AC50 [1] read?
A: The AC50 was 10 µM [falling, partial curve].

Q: Which AC50 [1] does the source give for `CC(C)(C)NS(=O)(=O)c1cccc(S(=O)(=O)c2cccc(S(=O)(=O)NC(C)(C)C)c2)c1` here?
A: Its AC50 is 15.8 µM [falling, partial curve].

Q: With `CCOc1ccc(C2C(C(N)=O)=C(C)Nc3nc(-c4cccc(Cl)c4)nn32)cc1OC` (centres undefined) as the compound, how does the AC50 [1] read?
A: Its AC50 is 39.8 µM [falling, single point].

Q: With `CCOC(=O)N1CCN(Cc2nc3cc(NC(=O)c4ccc([N+](=O)[O-])cc4)ccc3n2C(C)C)CC1` as the compound, how does the AC50 [1] read?
A: The AC50 was 25.1 µM [falling, single point].

Q: For `CC1Cn2cc(C(=O)Nc3ccccc3C(F)(F)F)c(=O)c3c(Cl)ccc(c32)O1` (centres undefined), which AC50 [1] is on record?
A: The AC50 was 3.98 µM [rising, full curve, poor fit].

Q: With `CC(C)Oc1ccc(C(=O)Nc2nc3c(s2)CC(C(C)(C)C)CC3)cc1` (centres undefined) as the compound, how does the AC50 [1] read?
A: Its AC50 is 25.1 µM [falling, single point].

Q: Which AC50 [1] does the source give for `COC(=O)c1[nH]c2ccc(Cl)cc2c1NC(=O)CN1CCc2cc(OC)c(OC)cc2C1` here?
A: The AC50 was 15.8 µM [falling, partial curve].

Q: For `O=c1c2ccccc2nc2n1CCc1c-2[nH]c2ccccc12`, which AC50 [1] is on record?
A: Its AC50 is 316 nM [falling, full curve, poor fit] [measured here: IkB-luc green channel].

Q: Which AC50 [1] does the source give for `O=C(/C=C/c1ccccc1)N1CCN(Cc2cc(=O)n3nc(-c4ccccc4Cl)sc3n2)CC1` here?
A: Its AC50 is 39.8 µM [falling, single point].

Q: For `CCn1c(SCC(=O)c2ccccc2)nnc1-c1cnccn1`, which AC50 [1] is on record?
A: The AC50 was 7.94 µM [falling, partial curve].
